Experimental data as given in PubChem BioAssay AID2662 (National Center for Advancing Translational Sciences (NCATS), 2010).
Out of some 290,000 compounds screened, about 110 (0.038%) were called active. The inconclusive results got no clear call from the source; some entries with a clear call stand among them for comparison. Calls follow the shape of the dose curve; as a rule, active = well fitted inhibition curve with a large enough effect in the polarisation, with a control signal flat (not every such curve was filed as active); inconclusive = small, poorly fitted or top-dose-only effect, or effect the other way, or a change in a side signal; inactive = no such curve, though single readings can be large or run the other way; the % refers to the polarisation. A potency beside an inconclusive call is a rough fit, not a confirmed value. A note “side channel” means that the fit belongs to a control or component signal, not to the main read-out.

By UniProt entry, the sequences of proteins in these tests, tags left out.
UniProt Q03164, whole entry, looked up: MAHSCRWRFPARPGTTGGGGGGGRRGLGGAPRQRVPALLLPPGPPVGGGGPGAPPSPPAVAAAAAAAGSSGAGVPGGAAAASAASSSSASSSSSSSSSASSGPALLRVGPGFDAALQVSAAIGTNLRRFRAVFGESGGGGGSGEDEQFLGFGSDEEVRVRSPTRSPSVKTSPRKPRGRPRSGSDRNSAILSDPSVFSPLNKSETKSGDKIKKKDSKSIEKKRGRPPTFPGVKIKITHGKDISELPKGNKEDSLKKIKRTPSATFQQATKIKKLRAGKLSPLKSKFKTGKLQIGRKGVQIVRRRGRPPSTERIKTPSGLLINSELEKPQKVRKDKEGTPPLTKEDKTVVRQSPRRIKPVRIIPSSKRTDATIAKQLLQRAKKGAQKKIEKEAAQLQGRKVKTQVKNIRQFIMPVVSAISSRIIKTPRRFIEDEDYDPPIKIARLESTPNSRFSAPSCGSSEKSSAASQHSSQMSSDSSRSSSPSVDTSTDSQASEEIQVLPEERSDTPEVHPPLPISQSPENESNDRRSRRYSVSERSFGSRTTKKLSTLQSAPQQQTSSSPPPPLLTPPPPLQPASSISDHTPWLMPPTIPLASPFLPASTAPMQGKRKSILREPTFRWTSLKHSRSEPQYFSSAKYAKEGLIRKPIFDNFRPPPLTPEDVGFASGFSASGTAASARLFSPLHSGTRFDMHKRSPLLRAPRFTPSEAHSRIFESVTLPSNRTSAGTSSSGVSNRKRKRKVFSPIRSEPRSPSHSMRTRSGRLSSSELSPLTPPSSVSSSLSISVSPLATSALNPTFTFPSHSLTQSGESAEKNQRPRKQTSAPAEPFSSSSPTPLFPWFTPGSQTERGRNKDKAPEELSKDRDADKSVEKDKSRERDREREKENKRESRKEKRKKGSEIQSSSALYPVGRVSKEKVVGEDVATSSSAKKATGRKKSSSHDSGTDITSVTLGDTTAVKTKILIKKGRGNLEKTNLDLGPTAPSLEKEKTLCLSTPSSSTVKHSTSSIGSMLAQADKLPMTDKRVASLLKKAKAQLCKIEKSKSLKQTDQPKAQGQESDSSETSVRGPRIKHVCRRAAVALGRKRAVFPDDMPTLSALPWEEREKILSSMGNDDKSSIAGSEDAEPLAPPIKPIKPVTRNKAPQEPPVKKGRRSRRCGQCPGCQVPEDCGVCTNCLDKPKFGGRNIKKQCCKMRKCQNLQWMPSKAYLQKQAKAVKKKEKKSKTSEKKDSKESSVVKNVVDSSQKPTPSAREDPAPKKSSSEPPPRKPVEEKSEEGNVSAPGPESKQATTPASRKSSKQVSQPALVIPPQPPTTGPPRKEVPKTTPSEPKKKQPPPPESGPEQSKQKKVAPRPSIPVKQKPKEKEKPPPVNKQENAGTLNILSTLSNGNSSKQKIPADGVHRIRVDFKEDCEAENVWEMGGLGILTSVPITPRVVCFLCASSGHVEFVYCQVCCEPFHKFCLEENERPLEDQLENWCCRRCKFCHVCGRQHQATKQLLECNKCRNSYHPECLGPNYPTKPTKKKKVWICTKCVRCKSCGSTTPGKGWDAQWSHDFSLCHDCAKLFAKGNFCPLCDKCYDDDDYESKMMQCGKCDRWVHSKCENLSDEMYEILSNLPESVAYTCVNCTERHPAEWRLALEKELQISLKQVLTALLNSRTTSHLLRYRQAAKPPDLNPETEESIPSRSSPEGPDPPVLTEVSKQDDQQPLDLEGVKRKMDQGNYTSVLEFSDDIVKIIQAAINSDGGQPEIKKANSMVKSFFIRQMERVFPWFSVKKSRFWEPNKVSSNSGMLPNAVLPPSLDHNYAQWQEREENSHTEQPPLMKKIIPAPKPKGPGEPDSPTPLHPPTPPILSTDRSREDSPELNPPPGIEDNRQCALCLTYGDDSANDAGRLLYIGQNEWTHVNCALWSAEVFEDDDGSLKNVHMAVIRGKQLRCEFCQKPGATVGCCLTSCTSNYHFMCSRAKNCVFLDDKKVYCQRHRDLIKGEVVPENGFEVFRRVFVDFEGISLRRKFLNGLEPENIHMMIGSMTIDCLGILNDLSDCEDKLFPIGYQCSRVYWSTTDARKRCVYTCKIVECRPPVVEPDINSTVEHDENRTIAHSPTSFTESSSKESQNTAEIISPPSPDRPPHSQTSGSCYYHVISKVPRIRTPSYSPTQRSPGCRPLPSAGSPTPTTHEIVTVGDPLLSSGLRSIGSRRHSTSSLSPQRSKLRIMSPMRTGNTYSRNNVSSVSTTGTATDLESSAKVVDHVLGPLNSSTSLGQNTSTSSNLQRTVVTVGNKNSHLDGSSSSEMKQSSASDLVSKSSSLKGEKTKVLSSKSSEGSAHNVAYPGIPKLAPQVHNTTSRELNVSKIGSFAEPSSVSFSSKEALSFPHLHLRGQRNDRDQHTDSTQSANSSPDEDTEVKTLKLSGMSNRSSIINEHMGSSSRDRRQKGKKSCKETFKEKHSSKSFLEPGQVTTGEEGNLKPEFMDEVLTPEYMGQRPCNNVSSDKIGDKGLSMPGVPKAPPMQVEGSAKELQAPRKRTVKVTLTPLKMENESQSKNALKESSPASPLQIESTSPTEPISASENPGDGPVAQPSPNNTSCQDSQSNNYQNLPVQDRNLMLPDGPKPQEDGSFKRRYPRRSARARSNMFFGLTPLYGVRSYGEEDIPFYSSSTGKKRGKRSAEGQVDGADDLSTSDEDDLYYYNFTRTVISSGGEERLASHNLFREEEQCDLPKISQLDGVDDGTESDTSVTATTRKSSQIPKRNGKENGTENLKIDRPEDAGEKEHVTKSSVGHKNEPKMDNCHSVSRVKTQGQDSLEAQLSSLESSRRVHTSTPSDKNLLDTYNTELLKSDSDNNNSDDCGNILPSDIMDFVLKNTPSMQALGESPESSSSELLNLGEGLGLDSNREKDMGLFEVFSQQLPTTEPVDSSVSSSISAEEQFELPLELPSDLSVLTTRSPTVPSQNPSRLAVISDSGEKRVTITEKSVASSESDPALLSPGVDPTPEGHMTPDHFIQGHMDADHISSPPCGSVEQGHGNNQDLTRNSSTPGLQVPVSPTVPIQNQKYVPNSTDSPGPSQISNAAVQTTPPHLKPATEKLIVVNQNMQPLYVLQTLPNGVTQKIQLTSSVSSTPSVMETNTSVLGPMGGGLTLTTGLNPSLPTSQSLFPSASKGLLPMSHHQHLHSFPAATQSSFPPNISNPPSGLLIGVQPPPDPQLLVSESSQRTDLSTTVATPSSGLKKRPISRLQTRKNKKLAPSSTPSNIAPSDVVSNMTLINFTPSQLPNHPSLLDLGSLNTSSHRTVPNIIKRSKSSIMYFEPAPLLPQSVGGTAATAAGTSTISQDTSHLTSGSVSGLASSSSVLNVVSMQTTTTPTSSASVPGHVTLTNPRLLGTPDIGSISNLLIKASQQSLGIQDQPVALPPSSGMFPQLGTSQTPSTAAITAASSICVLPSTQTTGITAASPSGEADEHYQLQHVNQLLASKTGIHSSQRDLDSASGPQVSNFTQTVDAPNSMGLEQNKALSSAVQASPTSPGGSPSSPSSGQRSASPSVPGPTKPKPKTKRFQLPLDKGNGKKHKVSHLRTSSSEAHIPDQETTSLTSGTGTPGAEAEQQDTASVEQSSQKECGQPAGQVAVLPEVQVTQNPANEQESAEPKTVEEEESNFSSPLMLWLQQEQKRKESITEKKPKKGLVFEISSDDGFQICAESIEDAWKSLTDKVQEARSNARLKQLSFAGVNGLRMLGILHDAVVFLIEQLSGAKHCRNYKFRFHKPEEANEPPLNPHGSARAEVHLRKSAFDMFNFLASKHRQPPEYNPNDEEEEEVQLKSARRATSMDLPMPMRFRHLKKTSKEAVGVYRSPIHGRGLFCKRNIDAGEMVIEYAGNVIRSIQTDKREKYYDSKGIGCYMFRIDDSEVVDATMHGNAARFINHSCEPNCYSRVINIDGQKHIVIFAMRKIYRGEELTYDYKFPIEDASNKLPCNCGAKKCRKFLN

target: Histone-lysine N-methyltransferase 2A (Homo sapiens) (UniProt Q03164); test: qHTS Fluorescence Polarization Assay for Inhibitors of MLL CXXC domain - DNA interaction; details: MLL-CXXC / FITC-HOXA9 DNA fluorescence polarization; series mostly up to 115 µM
Summary of the method: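 Purified MLL-CXXC (added from a 7 uM solution) was preincubated 5 min at ambient with pinned compounds in 50 mM Tris-HCl pH 7.5, 50 mM NaCl, 1 mM DTT, 0.05% BSA. Fluorescein-labeled HOX-A9 DNA (50 nM solution) followed, 30 min, then polarization read.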
Potency is read from the fitted curve at half-maximal effect.

Row | SMILES | Potency
1 | COc1ccc(NC(=S)N2CCN(CCN3C(=O)c4cccc5cccc(c45)C3=O)CC2)cc1 | inconclusive: 89.1 µM [inhibitor, single point]
2 | CC1CC(=O)c2cnc(Nc3cccc(C(F)(F)F)c3)nc2C1 (stereo unspecified) | inactive
3 | C[n+]1cccc2cccc([O-])c21 | inconclusive: 35.5 µM [inhibitor, single point]
4 | Cc1nc2ccccc2c(=O)n1/N=C/c1cc(Br)ccc1O | inconclusive: 89.1 µM [quencher, side channel, single point]
5 | O=C(O)c1ccccc1N=Nc1c(O)[nH]c2ccc([N+](=O)[O-])cc12 | inactive
6 | CCNS(=O)(=O)c1ccc(NC(=S)NCC2CCCO2)cc1 (stereo unspecified) | inconclusive: 7.08 µM [fluorescent, side channel, full curve]
7 | COc1ccc(/C=C/C(=O)N2CCCC2)cc1OC | inconclusive: 12.6 µM [fluorescent, side channel, full curve]
8 | S=C(Nc1ccccc1)Nc1nccs1 | inconclusive: 0.0089 µM [inhibitor, full curve, poor fit]
9 | O=C(CCC(=O)Nc1cc(C(F)(F)F)ccc1Cl)N/N=C\c1cc([N+](=O)[O-])ccc1O | inactive
10 | COc1ccccc1C(C(=O)NC1CCCCC1)N(C(=O)c1csnn1)C1CC1 (stereo unspecified) | inconclusive: 25.1 µM [inhibitor, partial curve]
11 | COC(=O)c1ccc(C2c3c(oc4ccc(Cl)cc4c3=O)C(=O)N2CCN2CCOCC2)cc1 (stereo unspecified) | inactive
12 | CCN(CC)Cc1c(O)ccc2c(=O)c(Oc3ccccc3OC)c(C)oc12 | inactive
13 | CC(C)(C)OC(=O)[C@H](Cc1ccccc1)NC(=O)c1nc[nH]c1C(=O)N[C@@H](Cc1ccccc1)C(=O)OC(C)(C)C | inactive
14 | O=C(OCc1ccc(F)cc1)c1cc(=O)c2ccccc2o1 | inconclusive: 15.8 µM [fluorescent, side channel, single point]
15 | O=C(CSc1ccc(-c2ccccc2)nn1)NC1CCCCC1 | inconclusive: 15.8 µM [quencher, side channel, single point]
16 | O=C1/C(=C\c2ccc(O)cc2)SC(=S)N1/N=C/c1ccc(O)cc1 | inconclusive: 35.5 µM [fluorescent, side channel, partial curve]
17 | CC1(C)CC2CC(C)(CN2C(=O)COC(=O)CNC(=O)c2ccc(Cl)c(Cl)c2)C1 (stereo unspecified) | inactive
18 | CCOc1ccc(N(Cc2nnc3n2CCCCC3)C(=O)Nc2cccc(C)c2)cc1 | inconclusive: 1.26 µM [fluorescent, side channel, full curve, poor fit]
19 | C=CCN1/C(=C2/SC(=S)N(C)C2=O)Sc2ccccc21 | inconclusive: 11.2 µM [fluorescent, side channel, partial curve, poor fit]
20 | CN(C)C(CN=C1NS(=O)(=O)c2ccccc21)c1ccco1 (stereo unspecified) | inconclusive: 35.5 µM [fluorescent, side channel, single point]
21 | COc1cccc(/C=N/NC(=O)c2ccc(=O)n(C)c2)c1O | inconclusive: 14.1 µM [inhibitor, single point]

Records 11 to 12, reprinted for reference:
Row | SMILES | Potency
11 | COC(=O)c1ccc(C2c3c(oc4ccc(Cl)cc4c3=O)C(=O)N2CCN2CCOCC2)cc1 (stereo unspecified) | inactive
12 | CCN(CC)Cc1c(O)ccc2c(=O)c(Oc3ccccc3OC)c(C)oc12 | inactive

(further entries)

Row | SMILES | Potency
22 | COc1cccc(CNC(=O)CSCc2cnn(-c3ccccc3)c2-n2cccc2)c1OC | inactive
23 | O=C(NCc1cc([N+](=O)[O-])ccc1O)c1cc(-c2ccncc2)nc2ccccc12 | inconclusive: 25.1 µM [fluorescent, side channel, partial curve, poor fit]
24 | CC(=O)NC(Cc1ccccc1C)C(=O)NC1CCN(C(=O)c2cccc(C)c2)CC1 (stereo unspecified) | inconclusive: 8.91 µM [quencher, side channel, single point]
25 | CN1CCN(C(=O)c2ccc(CS(=O)Cc3ccc(Cl)cc3)o2)CC1 (stereo unspecified) | inconclusive: 35.5 µM [quencher, side channel, single point]
26 | COc1cc(/C=C2\SC(=S)N(NC(=O)c3ccc(O)c(OC)c3)C2=O)ccc1O | inconclusive: 56.2 µM [fluorescent, side channel, partial curve]
27 | CN(C(=O)Cn1cc(C#N)c2ccccc21)c1ccccc1 | inconclusive: 5.62 µM [quencher, side channel, full curve]
28 | O=[N+]([O-])c1ccccc1S(=O)(=O)c1ccccc1 | inconclusive: 3.16 µM [quencher, side channel, partial curve]
29 | CCCn1c(=O)c2c(C(=O)OCC)cc(-c3ccco3)nc2n(CCC)c1=O | inactive
30 | O=C(NCc1ccco1)C(c1ccncc1)N(C(=O)Cc1cccs1)c1ccccc1 (stereo unspecified) | inactive
31 | CCOc1ccc(/C=C/C(=O)c2ccccc2)cc1 | inconclusive: 1.41 µM [fluorescent, side channel, partial curve, poor fit]
32 | CN(C)c1ccc(N2C(=NC(=O)CCc3ccccc3)SC3CS(=O)(=O)CC32)cc1 (stereo unspecified) | inconclusive: 70.8 µM [fluorescent, side channel, single point]
33 | Nc1c(CO)nnn1-c1ccccc1 | inactive
34 | Oc1c(C=Nc2ccc(Cl)cn2)sc2ccccc12 | inconclusive: 1 µM [fluorescent, side channel, full curve]
35 | COc1ccc(CCn2c(N)c(C#N)c3nc4ccccc4nc32)cc1OC | inactive
36 | Cc1[nH]n(-c2ccccc2)c(=O)c1C=NCc1ccncc1 | inconclusive: 1.12 µM [inhibitor, partial curve, poor fit]
37 | O=C(O)c1cc(-c2ccc(/C=C3\NC(=O)N(c4ccc(Cl)cc4)C3=O)o2)ccc1Cl | inactive
38 | c1ccc2nc3[nH]cnc3nc2c1 | inactive
39 | COCC(C)N=C1NN=C(c2cccs2)C(CC(=O)O)S1 (stereo unspecified) | inconclusive: 70.8 µM [fluorescent, side channel, single point]
40 | CCOC(=O)NC(=O)CSc1ccc2ccccc2n1 | inconclusive: 11.2 µM [fluorescent, side channel, full curve, poor fit]
41 | CCc1ccc(NC(=O)c2cnn(-c3ccccc3)c2C2CCNCC2)cc1 | inconclusive: 89.1 µM [fluorescent, side channel, single point]
